Hit rate of the full screen: of about 400,000 compounds, about 5,500 (1.4%) were called active. The shares of active, inactive and inconclusive entries below differ from those in the screen. Calls follow the shape of the dose curve; as a rule, active = well fitted cell-killing curve with a large enough effect; inconclusive = small, poorly fitted or top-dose-only effect, or effect the other way; inactive = flat fitted curve, though single readings scatter. Potencies of inconclusive entries are doubtful fits and often do not repeat.
Assay: qHTS assay for MDR1-selective chemotherapeutics: Primary screen using the parental adenocarcinoma cell KB-3-1; also: nearly all actives have a fitted effect of over 60% in size
Conditions: KB-3-1 viability, CellTiter-Glo ATP luminescence, 72 h; activity change, negative = cytotoxic: at 46.1 µM (top of the series)
Summary of the method: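 Cytotoxicity in the drug-sensitive parental line KB-3-1 was scored as loss of CellTiter-Glo luminescence following 72 h incubation with compound. Values come from curve fitting of normalized concentration-response data.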
% is scaled to controls: 0 for no effect and ±100 for the full control effect; potency is read from the fitted curve at half-maximal effect.

Row | SMILES | Potency | activity change, negative = cytotoxic
1 | O=C(Nc1ccccc1)OCCOc1ccccc1 | inconclusive: 23.1 µM [rising, single point] | 
2 | COc1cc([N+](=O)[O-])cc(/C=N\NC(=O)C2COc3ccccc3O2)c1O (stereo not given) | inconclusive: 16.4 µM [cytotoxic, single point] | 
3 | Cc1cc(-c2ccc(C(C)C)c(S(=O)(=O)N3CCN(c4ccccn4)CC3)c2)on1 | inconclusive: 23.1 µM [cytotoxic, single point] | 
4 | Cc1nn(-c2ccccc2)c(C)c1-c1cc(C(=O)N/N=C/c2ccc(O)cc2)[nH]n1 | inconclusive: 23.1 µM [cytotoxic, single point] | 
5 | COc1ccc(C2=C(Nc3ccc(C)cc3C)c3ccccc3C2=O)cc1 |  | inactive: -1.24%
6 | C/C(=N\NC(=O)c1ccc(Cl)c(Cl)c1)c1ccc(Br)s1 | inconclusive: 9.2 µM [cytotoxic, partial curve, poor fit] | 
7 | Cc1ccc2oc(=O)n(CCCOc3ccccc3Cl)c2c1 | inconclusive: 29.1 µM [cytotoxic, single point] | 
8 | CCc1ccc(NC(=O)CN2C(=O)C3(SCC(=O)N3c3ccc(F)c(F)c3)c3ccccc32)cc1 (stereo not given) | inconclusive: 29.1 µM [cytotoxic, single point] | 
9 | COCCNC(=S)NC1CC2CCCC(C1)N2Cc1cccs1 (stereo not given) |  | inactive: 6.64%
10 | O=[N+]([O-])c1ccc(O)c(/C=N/NC(=S)Nc2ccc(Cl)cc2Cl)c1 | inconclusive: 29.1 µM [cytotoxic, single point] | 
11 | CC(C)c1ccc(NC(=S)NC2CCCCCC2)cc1 |  | inactive: 2.54%
12 | Cc1cccc(C2CC(=O)Nc3cc4c(cc32)OCO4)c1 (stereo not given) | inconclusive: 20.6 µM [cytotoxic, single point] | 
13 | Cc1cccc(-n2ccnc2SCC(=O)Nc2nnc(C)s2)c1 |  | inactive: 0%
14 | CS(=O)(=O)Nc1cccc(NC(=O)C2Cc3c(-c4ccccc4)ccnc3O2)c1 (stereo not given) | active: 16.4 µM | 
15 | COC(=O)[C@@H](NCc1ccc(OC)c(B(O)O)c1)C(C)C |  | inactive: 0%
16 | COc1ccc(-c2c(C(C)=O)c(C)nc3sc4c(=N)n(N)cnc4c23)cc1 | inconclusive: 29.1 µM [cytotoxic, single point] | 
17 | Fc1ccc(CNCc2ccccc2Cl)cc1 |  | inactive: -8.1%
18 | CCN(CC)c1ccc(NC(=O)CCCN2C(=O)C(c3ccccc3)Oc3cccnc32)c(C)c1 (stereo not given) |  | inactive: -0.63%
19 | O=C1C(=Cc2cn(-c3ccccc3)nc2-c2ccc(OCc3ccccc3F)cc2)SC(=S)N1CCS(=O)(=O)O |  | inactive: -0.818%
20 | OC[C@@H]1CCC[C@@H](n2cnc3c(=S)nc[nH]c32)O1 | inconclusive: 23.1 µM [cytotoxic, partial curve, poor fit] | 
21 | O=C(Nc1nc2ccc(F)cc2s1)C1=NN(c2ccccc2)C(=O)CC1 | inconclusive: 14.6 µM [rising, partial curve, poor fit] | 
22 | CN(C)c1cc[n+](CC(=O)Nc2cccc([N+](=O)[O-])c2)cc1 | inconclusive: 23.1 µM [cytotoxic, partial curve, poor fit] | 
23 | COc1cc(C(=O)Nc2cccc(S(=O)(=O)N3CCCC3)c2)cc(OC)c1C | inconclusive: 29.1 µM [cytotoxic, single point] | 

Row | SMILES | Potency | activity change, negative = cytotoxic
24 | COc1cc(C)c(C2NC(=O)c3ccccc3N2)cc1C (stereo not given) | active: 2.59 µM | 
25 | CCOC(=O)/C=C1\CN(Cc2ccc(OC)cc2)S(=O)(=O)c2ccc(C(F)(F)F)cc21 |  | inactive: -2.83%
26 | CNC[C@H](CC1CCCCC1)NC[C@H](CO)NCC1(c2ccccc2)CC1 | inconclusive: 29.1 µM [cytotoxic, single point] | 
27 | CC(Nc1c([N+](=O)[O-])c(=O)oc2ccccc12)C(Cl)c1ccccc1 (stereo not given) | inconclusive: 32.6 µM [cytotoxic, single point] | 
28 | FC(F)C(F)(F)Oc1cccc(Nc2nccn3c(-c4ccc5ccccc5c4)cnc23)c1 | inconclusive: 29.1 µM [cytotoxic, single point] | 
29 | N=c1n(CCN2CCCCC2)c2ccccc2n1CC(=O)c1cccs1 | inconclusive: 8.2 µM [cytotoxic, partial curve] | 
30 | CCOC(=O)c1nc(Nc2ccccc2CC)c2ccccc2n1 | inconclusive: 14.6 µM [cytotoxic, partial curve] | 
31 | CCOC(=O)CNc1nc(C(C)(C)C)nc2c1nnn2Cc1ccccc1 | inconclusive: 29.1 µM [cytotoxic, single point] | 
32 | CN1C(=O)C(O)(CC(=O)c2ccc(F)cc2)c2cc(Br)ccc21 (stereo not given) | active: 25.9 µM | 
33 | CCCNC(=O)CN1C(=O)CSc2ccc(S(=O)(=O)N3CCC(C)CC3)cc21 |  | inactive: 10.5%
34 | N#Cc1ccc(CN2CCN(C(=O)CNC(=O)Cc3ccccc3)CC2)cc1 |  | inactive: 5.31%
35 | COc1ccc(S(=O)(=O)Nc2ccc3oc(C)c(C(C)=O)c3c2)cc1 | active: 3.26 µM | 
36 | CN(C)S(=O)(=O)Oc1ccsc1C(=O)Nc1cccc(Cl)c1Cl | inconclusive: 23.1 µM [cytotoxic, single point] | 
37 | CCOC(=O)c1sc(NC(=O)CCc2ccccc2)nc1C | inconclusive: 3.66 µM [cytotoxic, full curve, poor fit] | 
38 | Cc1ccc(Nc2c(C(C)C)c(C)c(C#N)c3nc4ccccc4n23)cc1 |  | inconclusive: -47% [cytotoxic]
39 | O=C(NCc1ccncc1)[C@@H]1CCCN1C(=O)[C@@H]1CCCN1 |  | inconclusive: 5.18%
40 | Cc1ccc(C(=O)c2ccccc2C(=O)O)cc1C | inconclusive: 16.4 µM [cytotoxic, single point] | 
41 | Cc1ccc(S(=O)(=O)CCSc2cccc(C(=O)Nc3ccccc3C(=O)O)c2)cc1 | inconclusive: 23.1 µM [cytotoxic, single point] | 
42 | C=CCn1c(=O)c2c(nc(-n3nc(C)cc3C)n2C)n(C)c1=O | inconclusive: 29.1 µM [cytotoxic, single point] | 
43 | C(=N\N1CCN(C2c3ccccc3-c3ccccc32)CC1)/c1ccncc1 |  | inactive: -13.8%
44 | CCc1ccc(-c2cc(C)no2)cc1S(=O)(=O)N1CCCN(Cc2ccc(F)cc2)C1 | inconclusive: 29.1 µM [cytotoxic, single point] | 
45 | COC(=O)c1ccc(NCCC(=O)O)cc1 |  | inactive: 0.656%

Random excerpt: two records from the list.
Row | SMILES | Potency | activity change, negative = cytotoxic
35 | COc1ccc(S(=O)(=O)Nc2ccc3oc(C)c(C(C)=O)c3c2)cc1 | active: 3.26 µM | 
42 | C=CCn1c(=O)c2c(nc(-n3nc(C)cc3C)n2C)n(C)c1=O | inconclusive: 29.1 µM [cytotoxic, single point] | 

— PubChem BioAssay AID1347075 (National Center for Advancing Translational Sciences (NCATS), 2019)
